Experimental data reported in paper PMC10303925.
These are yes or no findings as the source states them, for the method shown. For part of these data: In cells and extracts the contact can be indirect. Some entries that bind do so weakly or less than the wild type. For part of these data: Sequences can lack the tags named with a protein.

T1: RAB27A(Gln78Leu/Cys219Ala/Cys221Ala) (WT in the yeast two-hybrid assay) (mouse) (UniProt Q9ERI2)
T1 sequence: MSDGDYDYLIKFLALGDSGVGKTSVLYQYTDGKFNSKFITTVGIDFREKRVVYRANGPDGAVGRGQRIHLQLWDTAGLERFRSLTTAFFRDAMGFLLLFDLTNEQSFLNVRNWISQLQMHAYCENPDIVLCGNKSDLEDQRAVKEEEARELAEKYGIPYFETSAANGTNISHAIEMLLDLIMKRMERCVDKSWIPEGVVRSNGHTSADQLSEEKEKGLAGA

T2: RAB27A(Asp7Tyr/Gln78Leu/Cys219Ala/Cys221Ala) (mouse) (UniProt Q9ERI2)
T2 sequence: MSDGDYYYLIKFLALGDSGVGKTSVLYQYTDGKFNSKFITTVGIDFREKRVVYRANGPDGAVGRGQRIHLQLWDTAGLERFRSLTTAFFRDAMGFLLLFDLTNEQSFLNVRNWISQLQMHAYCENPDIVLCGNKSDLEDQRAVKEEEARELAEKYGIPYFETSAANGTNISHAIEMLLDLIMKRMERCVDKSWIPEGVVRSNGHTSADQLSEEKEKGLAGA

T3: FLAG-RAB27A (WT) (mouse) (UniProt Q9ERI2)
T3 sequence: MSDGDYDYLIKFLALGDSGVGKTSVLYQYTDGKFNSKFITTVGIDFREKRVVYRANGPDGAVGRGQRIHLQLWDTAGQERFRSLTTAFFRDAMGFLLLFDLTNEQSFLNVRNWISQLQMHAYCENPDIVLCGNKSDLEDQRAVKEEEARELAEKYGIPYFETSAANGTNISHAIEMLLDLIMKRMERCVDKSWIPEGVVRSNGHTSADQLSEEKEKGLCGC


Experiments:
[1] = molecular target: T1, RAB27A(Gln78Leu/Cys219Ala/Cys221Ala) (WT in the yeast two-hybrid assay) (mouse); assay: two-hybrid; yeast cells with pGBD-C1-RAB27A(Gln78Leu/Cys219Ala/Cys221Ala) (WT or Asp7Tyr) and pAct2-MLPH/SLAC2-A-SHD or pACT2-SLP2-A-SHD; growth on selection medium SC-AHLW for four days (growth medium SC-LW two days)
[2] = molecular target: T2, RAB27A(Asp7Tyr/Gln78Leu/Cys219Ala/Cys221Ala) (mouse); assay: as above
FLAG-RAB27A (WT) (mouse) = molecular target: T3, FLAG-RAB27A (WT) (mouse); assay: co-IP; COS-7 cells expressing T7-MUNC13-4 and FLAG-RAB27A (WT or Asp7Tyr); anti-FLAG M2 magnetic beads; immunoblot with HRP-conjugated anti-T7 and anti-FLAG

Row | binding [1] | binding [2] | binding (FLAG-RAB27A (WT) (mouse)) | Binder
1 | binds | binds | – | SLP2-A-SHD (amino acids 1-87) (domain or fragment, UniProt Q99N50-1 1-87) MIDLSFLTEEEQDAILKVLQRDAALKRAEEERVRHLPEKIKDDQQLKNMSGQWFYEAKAKRHRDKIHGADIIRASMRRKKLPAAAEQ
2 | – | – | binds | T7-MUNC13-4 (protein, UniProt B2RUP2 1-1085) MATHLSHPQRRPLLRQAIKIRRRRVRDLQDPPPQATQEVQVQSHHFSPEERDLLYEEALYTVLHRLGQPEPNHVKEASELLSYLQEAFQVQPEEHQQMLRRVRELEKPVFCLKATVKQAKGILGKDVSGFSDPYCLLGIEQKVGVAEGSPVSRRRQKAVVKHTIPEEETHRTQVKSQTLNPVWDETFILEFEDIANASFHLDMWDLDTVESVRQKLGELTDLHGLRRIFKEARKDKGQDDFLGNVVLRLQDLRCREDQWFPLEPCTETYPDRGQCHLQFQFIHKRRATAASRSQPSYTVHFHLLQQLVSHEVTQHQAGSTSWDASLSPQAVTILFLHATQKDLSDFHQSMAQWLAYSRLYQSLEFPSSCLLHPITSIEYQWIQGRLKAEQREELATSFTSLLAYGLSLIRKFRSVFPLSVSDSPSRLQSLLRVLVQMCKMKAFGELCPDSAPLSQLVSEALRMGTVEWFHLMQQHHQPMVQGILEAGKALLNLVQDVMGDLYQCRRTWNKIFHNVLKIDLFSMAFLELQWLVAKRVQDHTVAAGNLVSPDIGESLFQLYVSLKELCQLGPVPSDSREVLALDGFHRWFQPAIPSWLQKTYSVALERVQRAVQMDTLVPLGELTKHSTSAVDLSTCFAQISHTARQLDWPDPEEAFMITVKFVEDTCRLALVYCSLIKARARELSAVQKDQSQAADMLCVVVNNMEQLRLIIDKLPTQLAWEALEQRVGAVLEEGQLQNTLHAQLQGALAGLGHEIRTGVRTLAEQLEVGIATHIQKLIGVKESVLPEDAILPLMKFLEVKLCYMNTNLVQENFSSLLTLLWTHTLTVLVEVASSQRSSSLASGRLKVALQNLEVCFHAEGCGLPPEALHTDTFQALQNDLELQAASSRELIQKYFCSRIQQQAETTSERLGAVTVKVSYRASEQRLRVELLSASSLLPLDSNGSSDPFVQLTLEPRHEFPEVAPRETQKHKKELHPLFDETFEFLVPAEPCQKAWACLLLTVLDHDRLGADDLEGEAFLPLCRVPGLTDCAEPGEAPQMRLPLTYPAPNGDPILRLLESRKGDREAQAFVKLRRQRAKQASQHAP
